In article PMC7534897 (Bioorganic & Medicinal Chemistry Letters, 2020):
pEC50: −log10 of the molar value. Read-outs that look alike come from different tables or passages of the source.

Test system: Enterovirus 71 (Tainin/4643/98 strain)
Assay: Inhibition of EV-A71 replication in Vero 76 cells
Format: cell-based
Settings: Enterovirus A

`OC[C@@]12C[C@@H]1[C@@H](n1cnc3c(NC(C4CC4)C4CC4)nc(Cl)nc31)[C@H](O)[C@@H]2O` [Compound 16] showed a pEC50 (Vero 76, read-out: Neutral red EC50) of 5.49 and a pEC50 (Vero 76, read-out: Visual EC50) of 5.00.
